In patent US11998589B2, “PEGylated peptide amphiphile nanofibers and methods of use” (Northwestern University, priority 2020, dated 2024):
Not every detail of the peptide structures is certain; ends, links or a residue may be inferred. Square brackets hold non-standard residues; d marks the D form. Peptide text beside a SMILES is read from it. * marks the point of attachment. PEG10 = NCCOCCOCCOCCOCCOCCOCCOCCOCCOCCOCCC(=O)O; Palmitoyl = CCCCCCCCCCCCCCCC(=O)*

Assays:
[1] = system: Human mesenchymal stem cells; test: Alkaline phosphatase (ALP) activity, osteogenic differentiation; assay type: cell-based
Description: Alkaline Phosphatase Activity: Human mesenchymal stem cells were obtained from Lonza and maintained in Mesenchymal Stem Cell Growth Media (Lonza). Cells were used for experiments prior to passage 6. Cells were trypsinized and resuspended in growth media containing high glucose DMEM supplemented with 10% FBS and 1% penicillin/streptomycin and 50 mg/L sodium ascorbate. 500 μl of the cell suspension was placed in each well of a 24 well plate and incubated for 24 hours. Media was removed and replaced with 540 μl of growth media or osteogenic media containing low glucose DMEM supplemented with 10% FBS, 50 mg/L sodium ascorbate 10 mM 3-glycerophosphate, and 100 nM dexamethasone. 60 μl of a 10 times concentrated PA solution in PBS was then added to each well. Every 3-4 days, media was replaced by removing 300 μl media and adding 270 μl growth media or osteogenic media and 30 μl of the 10 times concentrated PA solution in PBS. Alkaline phosphatase (ALP) activity was determined using the SensoLyte pNPP ALP Assay Kit (Anaspec, Fremont, CA) according to the manufacturer's instructions. Briefly, cells were washed once with the assay buffer and the 200 μl of the assay buffer supplemented with Triton-X was added to each well. The plate was incubated for 1 hour at 4° C. under mild agitation, cells were scraped with a pipette tip and collected, and the suspension was centrifuged for 10 minutes at 5,000 g. The supernatant was mixed with the assay's detection buffer in a microplate and the optical absorbance was read after a four-hour incubation using a Cytation 3 microplate reader. The supernatant was also used to determine DNA concentration using a Quant-iT PicoGreen dsDNA kit (Molecular Probes, Eugene, OR). ALP concentration was normalized to DNA concentration for each sample.

[2] = Nile red assay of aggregation; assay type: physicochemical; conditions: buffers of 0 mM, 15 mM and 150 mM NaCl
Description: Nile Red Assay: Following heat treatment, PA solutions were serially diluted in water (0 mM NaCl), or a buffer of 15 mM NaCl, or 150 mM NaCl. A solution of 100 μM Nile red was added to the PA solutions to one thousandth the total volume and incubated for 1 hour. The fluorescence spectrum was read from 600 nm to 700 nm using a BioTek Cytation 3 microplate reader using 560 nm excitation and the fluorescence shift was determined by subtracting the maximum […] wavelength for each sample from that of the dye solution diluted in each buffer alone.

[3] = Zeta potential of PA solutions; assay type: physicochemical; conditions: pH 2, pH 7, and pH 12
Description: Zeta potential: Heat-treated PA solutions were diluted 20 times in 30 mM NaCl with 10 mM HCl, 30 mM NaCl, or 30 mM NaCl with 10 mM NaOH for pH 2, pH 7, and pH 12 respectively. For each PA, three separate samples were prepared at each pH. Samples were loaded in a disposable folded capillary cell and zeta-potential was measured at 25° C. using a Zetasizer Nano ZS (Malvern Instruments, Malvern, UK). The average of the three measurements for each sample was plotted.

Compound: CCCCCCCCCCCCCCCC(=O)N[C@H](C(=O)N[C@H](C(=O)N[C@@H](C)C(=O)N[C@@H](C)C(=O)NCCOCCOCCOCCOCCOCCOCCOCCOCCOCCOCCC(N)=O)C(C)C)C(C)C [PA1] (Palmitoyl-VVAA[PEG10]-NH2)
- cell differentiation as measured by ALP activity, co-assemblies with C16-V2-A2-E2 ([1]; MSCs, varying co-assembly ratios, in the presence and absence of added BMP-2): increases cell differentiation
- ALP activity (osteogenic differentiation) in growth media ([1]; human MSCs, growth media, various PA concentrations, one week): not affected
- ALP activity (osteogenic differentiation) in osteogenic media ([1]; human MSCs, osteogenic media with dexamethasone and β-glycerophosphate, one week): increased ALP activity
- PA concentration giving the largest increase in ALP activity ([1]; human MSCs, osteogenic media, one week): 10 µM
- aggregation as indicated by redshift in Nile red fluorescence, dependence on ionic strength [2]: occurred independently of ionic strength
- Zeta-potential (surface charge) [3]: ~0 mV
